Assay results published in PMC5057110.
These are yes or no findings as the source states them, for the method shown. For some assays here: Where a sequence is shown, tags or fusion partners need not be part of it.

T1: endogenous CD93 on human monocytes (human (endogenous in monocytes)), Q9NPY3
T1 chain: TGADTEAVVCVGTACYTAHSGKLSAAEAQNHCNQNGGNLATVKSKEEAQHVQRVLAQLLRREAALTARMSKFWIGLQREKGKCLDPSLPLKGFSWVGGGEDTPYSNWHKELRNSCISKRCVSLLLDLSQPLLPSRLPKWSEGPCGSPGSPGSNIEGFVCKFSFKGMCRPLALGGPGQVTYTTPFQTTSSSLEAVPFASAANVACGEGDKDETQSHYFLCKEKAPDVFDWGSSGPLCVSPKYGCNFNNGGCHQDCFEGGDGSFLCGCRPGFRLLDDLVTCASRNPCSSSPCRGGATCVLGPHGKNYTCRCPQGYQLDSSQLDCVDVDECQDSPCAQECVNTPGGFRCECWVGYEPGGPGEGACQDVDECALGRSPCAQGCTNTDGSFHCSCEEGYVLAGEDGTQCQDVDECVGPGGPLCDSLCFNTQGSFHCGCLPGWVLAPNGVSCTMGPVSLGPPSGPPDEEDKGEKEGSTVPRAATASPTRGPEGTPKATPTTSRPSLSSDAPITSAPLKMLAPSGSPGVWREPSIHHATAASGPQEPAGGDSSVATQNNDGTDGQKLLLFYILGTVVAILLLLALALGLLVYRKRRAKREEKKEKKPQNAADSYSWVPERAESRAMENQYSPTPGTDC

T2: human CD93-GFP ectopically expressed on Chinese Hamster Ovary cells (human), Q9NPY3
T2 chain: T1 chain

B1: endogenous CD93 on human monocytes, Q9NPY3 22-652 (receptor)
chain: T1 chain
B2: human CD93-GFP ectopically expressed on Chinese Hamster Ovary cells, Q9NPY3 22-652 (receptor)
chain: T1 chain

What was measured:
[1] = biological target: T1, endogenous CD93 on human monocytes …; assay: single-particle fluorescence intensity (amplitude of diffraction-limited PSFs); CD93 on live cells labelled at low density with anti-human CD93 (clone R139) and Cy3 Fab; amplitude of individual PSFs normalised to the modal amplitude of the data set; 37 °C; conditions: remark: other sources report otherwise
[2] = biological target: T2, human CD93-GFP ectopically expressed on …; assay: as above; conditions: remark: other sources report otherwise

| binding [1] | binding [2] | Binder |
| --- | --- | --- |
| no binding | – | B1 |
| – | no binding | B2 |
